Reference: the supplement of paper PMC10849652
Some of the results follow.

Sequences of proteins named here, by UniProt entry; tags and fusion partners are left off. A change or cut given only in a name is not applied to a line headed by its entry.
UniProt Q86SQ7: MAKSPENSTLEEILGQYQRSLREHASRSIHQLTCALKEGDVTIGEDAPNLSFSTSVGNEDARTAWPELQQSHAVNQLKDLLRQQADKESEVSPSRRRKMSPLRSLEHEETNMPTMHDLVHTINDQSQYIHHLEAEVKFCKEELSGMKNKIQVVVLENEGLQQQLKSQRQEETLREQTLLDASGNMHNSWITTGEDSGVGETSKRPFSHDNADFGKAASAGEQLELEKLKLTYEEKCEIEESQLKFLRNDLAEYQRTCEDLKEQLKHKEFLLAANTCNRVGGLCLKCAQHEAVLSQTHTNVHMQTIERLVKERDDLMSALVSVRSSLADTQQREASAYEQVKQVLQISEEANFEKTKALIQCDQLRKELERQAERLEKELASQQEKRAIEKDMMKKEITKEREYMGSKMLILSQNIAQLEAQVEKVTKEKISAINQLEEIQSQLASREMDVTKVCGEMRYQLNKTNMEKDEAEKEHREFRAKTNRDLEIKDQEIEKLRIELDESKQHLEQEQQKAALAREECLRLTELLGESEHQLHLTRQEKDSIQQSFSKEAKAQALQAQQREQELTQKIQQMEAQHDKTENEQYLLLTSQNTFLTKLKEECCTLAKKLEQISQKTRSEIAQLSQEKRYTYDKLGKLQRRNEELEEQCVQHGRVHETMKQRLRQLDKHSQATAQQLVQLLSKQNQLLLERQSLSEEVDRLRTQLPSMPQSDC
UniProt Q15436: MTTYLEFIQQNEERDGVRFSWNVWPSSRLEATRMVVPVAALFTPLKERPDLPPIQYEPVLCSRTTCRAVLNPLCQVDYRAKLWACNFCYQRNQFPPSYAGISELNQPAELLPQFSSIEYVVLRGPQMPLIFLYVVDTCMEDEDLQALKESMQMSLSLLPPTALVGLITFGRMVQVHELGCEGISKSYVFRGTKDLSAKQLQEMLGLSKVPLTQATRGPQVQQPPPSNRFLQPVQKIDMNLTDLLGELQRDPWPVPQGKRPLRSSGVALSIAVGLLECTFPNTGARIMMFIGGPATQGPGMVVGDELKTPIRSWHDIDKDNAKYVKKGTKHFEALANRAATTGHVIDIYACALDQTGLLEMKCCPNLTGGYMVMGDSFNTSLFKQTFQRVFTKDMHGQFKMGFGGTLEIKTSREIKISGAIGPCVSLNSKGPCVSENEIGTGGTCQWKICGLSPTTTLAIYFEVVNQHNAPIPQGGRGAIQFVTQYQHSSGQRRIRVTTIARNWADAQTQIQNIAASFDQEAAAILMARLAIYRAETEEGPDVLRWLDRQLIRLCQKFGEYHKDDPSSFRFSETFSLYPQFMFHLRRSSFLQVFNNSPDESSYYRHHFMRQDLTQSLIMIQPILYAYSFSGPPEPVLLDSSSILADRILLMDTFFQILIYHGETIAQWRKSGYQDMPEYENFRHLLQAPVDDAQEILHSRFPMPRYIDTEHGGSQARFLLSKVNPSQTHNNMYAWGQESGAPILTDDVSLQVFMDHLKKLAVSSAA
UniProt Q9NR31: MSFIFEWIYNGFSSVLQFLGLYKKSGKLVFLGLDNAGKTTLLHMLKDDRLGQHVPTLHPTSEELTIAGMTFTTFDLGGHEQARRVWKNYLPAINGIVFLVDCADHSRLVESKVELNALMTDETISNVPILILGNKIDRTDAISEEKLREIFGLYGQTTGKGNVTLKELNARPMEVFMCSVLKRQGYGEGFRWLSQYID
UniProt Q96ER3: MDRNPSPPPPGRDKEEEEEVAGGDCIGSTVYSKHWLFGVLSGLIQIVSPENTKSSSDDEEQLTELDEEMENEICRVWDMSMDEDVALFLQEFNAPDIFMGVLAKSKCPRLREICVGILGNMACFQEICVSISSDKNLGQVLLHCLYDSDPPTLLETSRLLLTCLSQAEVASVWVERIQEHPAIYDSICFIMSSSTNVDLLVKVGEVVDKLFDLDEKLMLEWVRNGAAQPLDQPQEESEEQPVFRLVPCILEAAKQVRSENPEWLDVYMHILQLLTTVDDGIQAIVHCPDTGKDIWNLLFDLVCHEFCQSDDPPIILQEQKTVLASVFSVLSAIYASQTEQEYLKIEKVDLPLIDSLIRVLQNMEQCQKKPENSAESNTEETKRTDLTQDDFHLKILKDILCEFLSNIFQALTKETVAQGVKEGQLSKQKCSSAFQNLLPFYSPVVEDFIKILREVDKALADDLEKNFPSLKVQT
UniProt O94855: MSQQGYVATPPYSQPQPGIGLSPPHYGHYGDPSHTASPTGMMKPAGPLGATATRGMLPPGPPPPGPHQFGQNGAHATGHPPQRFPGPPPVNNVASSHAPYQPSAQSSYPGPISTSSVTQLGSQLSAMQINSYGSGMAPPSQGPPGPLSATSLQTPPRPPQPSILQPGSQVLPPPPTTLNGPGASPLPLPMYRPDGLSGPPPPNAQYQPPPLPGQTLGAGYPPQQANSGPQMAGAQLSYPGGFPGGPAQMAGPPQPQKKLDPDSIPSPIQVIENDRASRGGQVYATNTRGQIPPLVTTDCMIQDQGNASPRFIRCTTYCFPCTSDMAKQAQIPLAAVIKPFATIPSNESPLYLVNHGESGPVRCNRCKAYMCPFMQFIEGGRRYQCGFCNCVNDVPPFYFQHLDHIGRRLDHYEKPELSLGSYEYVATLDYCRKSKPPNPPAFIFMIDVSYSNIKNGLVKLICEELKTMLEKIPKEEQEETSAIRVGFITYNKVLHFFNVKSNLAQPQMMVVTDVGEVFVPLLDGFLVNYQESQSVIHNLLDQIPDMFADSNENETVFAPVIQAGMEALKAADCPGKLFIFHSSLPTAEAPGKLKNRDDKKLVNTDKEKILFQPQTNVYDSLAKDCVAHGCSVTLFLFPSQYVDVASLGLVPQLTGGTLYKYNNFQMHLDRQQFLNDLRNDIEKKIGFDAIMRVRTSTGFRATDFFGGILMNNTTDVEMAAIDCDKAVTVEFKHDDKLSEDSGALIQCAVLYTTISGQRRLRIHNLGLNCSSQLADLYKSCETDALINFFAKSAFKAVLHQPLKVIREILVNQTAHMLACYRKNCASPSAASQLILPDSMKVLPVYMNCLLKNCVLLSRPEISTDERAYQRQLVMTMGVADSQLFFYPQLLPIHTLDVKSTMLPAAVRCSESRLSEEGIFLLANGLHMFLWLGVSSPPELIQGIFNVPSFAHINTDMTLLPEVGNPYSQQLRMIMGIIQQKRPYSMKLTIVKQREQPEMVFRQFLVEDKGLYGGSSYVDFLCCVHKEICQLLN
UniProt Q6P3W7: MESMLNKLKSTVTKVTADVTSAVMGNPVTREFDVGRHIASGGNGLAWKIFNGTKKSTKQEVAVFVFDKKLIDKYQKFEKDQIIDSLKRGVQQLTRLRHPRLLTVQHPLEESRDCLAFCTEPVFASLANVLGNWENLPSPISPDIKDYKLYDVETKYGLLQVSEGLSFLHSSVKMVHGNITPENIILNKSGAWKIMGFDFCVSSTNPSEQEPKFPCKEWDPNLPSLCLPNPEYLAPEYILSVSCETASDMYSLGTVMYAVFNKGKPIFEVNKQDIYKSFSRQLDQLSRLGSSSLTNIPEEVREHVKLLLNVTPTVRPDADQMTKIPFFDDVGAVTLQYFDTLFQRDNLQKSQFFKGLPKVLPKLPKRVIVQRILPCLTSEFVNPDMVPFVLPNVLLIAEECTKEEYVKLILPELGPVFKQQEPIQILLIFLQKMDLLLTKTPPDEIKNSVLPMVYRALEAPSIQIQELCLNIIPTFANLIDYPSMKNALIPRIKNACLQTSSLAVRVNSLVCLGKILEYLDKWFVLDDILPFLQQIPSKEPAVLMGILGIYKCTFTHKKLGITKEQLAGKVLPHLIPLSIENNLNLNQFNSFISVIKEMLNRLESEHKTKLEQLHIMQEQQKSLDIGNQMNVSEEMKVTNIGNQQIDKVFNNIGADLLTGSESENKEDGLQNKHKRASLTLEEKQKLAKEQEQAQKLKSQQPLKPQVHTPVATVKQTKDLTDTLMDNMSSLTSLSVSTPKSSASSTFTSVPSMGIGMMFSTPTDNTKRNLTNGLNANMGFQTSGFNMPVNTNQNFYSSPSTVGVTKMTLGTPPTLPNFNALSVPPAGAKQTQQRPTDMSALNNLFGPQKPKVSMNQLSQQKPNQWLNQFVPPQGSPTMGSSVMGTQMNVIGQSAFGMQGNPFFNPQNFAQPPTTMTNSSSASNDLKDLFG
UniProt Q9BQE4, whole entry, looked up: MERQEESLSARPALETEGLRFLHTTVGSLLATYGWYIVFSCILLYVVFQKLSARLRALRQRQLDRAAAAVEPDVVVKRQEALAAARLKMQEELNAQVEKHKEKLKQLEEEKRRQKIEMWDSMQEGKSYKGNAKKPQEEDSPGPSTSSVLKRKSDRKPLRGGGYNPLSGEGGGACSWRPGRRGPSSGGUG
UniProt Q96BU1: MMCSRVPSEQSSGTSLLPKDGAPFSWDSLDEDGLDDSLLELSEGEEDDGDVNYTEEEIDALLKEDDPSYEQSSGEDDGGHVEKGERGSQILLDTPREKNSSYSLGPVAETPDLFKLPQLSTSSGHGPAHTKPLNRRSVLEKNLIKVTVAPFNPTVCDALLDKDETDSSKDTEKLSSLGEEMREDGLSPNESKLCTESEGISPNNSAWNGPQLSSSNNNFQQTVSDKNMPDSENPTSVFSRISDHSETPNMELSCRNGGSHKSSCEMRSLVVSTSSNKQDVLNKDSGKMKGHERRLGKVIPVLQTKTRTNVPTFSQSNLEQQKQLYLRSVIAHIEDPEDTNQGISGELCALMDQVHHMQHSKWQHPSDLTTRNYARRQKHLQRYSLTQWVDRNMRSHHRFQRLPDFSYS
UniProt O75446: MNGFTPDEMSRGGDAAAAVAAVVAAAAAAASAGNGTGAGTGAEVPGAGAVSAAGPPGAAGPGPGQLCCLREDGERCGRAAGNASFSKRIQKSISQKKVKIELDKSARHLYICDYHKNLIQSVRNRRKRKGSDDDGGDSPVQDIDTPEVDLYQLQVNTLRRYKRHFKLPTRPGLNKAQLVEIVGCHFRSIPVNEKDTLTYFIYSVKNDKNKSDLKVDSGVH
UniProt P25815: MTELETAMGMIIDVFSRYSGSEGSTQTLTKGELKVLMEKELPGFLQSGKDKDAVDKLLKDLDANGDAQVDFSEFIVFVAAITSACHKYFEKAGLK
UniProt Q0VDG4: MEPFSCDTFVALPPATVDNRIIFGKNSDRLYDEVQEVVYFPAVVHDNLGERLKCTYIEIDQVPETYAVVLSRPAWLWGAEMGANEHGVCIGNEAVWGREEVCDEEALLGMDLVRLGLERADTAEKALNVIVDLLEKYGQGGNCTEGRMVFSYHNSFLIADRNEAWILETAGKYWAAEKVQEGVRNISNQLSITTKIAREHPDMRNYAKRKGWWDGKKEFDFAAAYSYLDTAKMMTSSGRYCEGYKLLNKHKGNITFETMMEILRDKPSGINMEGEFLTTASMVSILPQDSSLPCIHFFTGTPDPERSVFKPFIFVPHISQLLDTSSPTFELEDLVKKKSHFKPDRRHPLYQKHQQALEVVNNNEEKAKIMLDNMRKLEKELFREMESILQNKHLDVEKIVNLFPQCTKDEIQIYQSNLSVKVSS
UniProt Q9BRK5: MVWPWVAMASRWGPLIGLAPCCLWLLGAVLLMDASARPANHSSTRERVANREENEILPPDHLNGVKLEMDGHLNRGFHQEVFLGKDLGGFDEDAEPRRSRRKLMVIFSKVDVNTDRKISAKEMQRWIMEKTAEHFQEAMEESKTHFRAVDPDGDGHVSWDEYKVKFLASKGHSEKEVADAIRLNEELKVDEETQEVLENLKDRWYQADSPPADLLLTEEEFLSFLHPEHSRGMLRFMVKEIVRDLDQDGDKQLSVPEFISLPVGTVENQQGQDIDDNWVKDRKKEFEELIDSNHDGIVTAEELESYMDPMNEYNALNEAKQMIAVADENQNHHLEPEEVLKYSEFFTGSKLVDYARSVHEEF
UniProt P55735: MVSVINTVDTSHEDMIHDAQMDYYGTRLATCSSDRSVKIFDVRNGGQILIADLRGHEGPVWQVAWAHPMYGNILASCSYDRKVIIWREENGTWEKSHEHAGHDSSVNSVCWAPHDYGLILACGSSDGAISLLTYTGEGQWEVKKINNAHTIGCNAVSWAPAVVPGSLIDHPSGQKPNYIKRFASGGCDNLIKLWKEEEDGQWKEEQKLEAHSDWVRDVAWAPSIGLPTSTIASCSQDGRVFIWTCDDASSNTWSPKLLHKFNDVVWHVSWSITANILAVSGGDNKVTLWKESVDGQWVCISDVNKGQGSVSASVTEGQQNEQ
UniProt O00767: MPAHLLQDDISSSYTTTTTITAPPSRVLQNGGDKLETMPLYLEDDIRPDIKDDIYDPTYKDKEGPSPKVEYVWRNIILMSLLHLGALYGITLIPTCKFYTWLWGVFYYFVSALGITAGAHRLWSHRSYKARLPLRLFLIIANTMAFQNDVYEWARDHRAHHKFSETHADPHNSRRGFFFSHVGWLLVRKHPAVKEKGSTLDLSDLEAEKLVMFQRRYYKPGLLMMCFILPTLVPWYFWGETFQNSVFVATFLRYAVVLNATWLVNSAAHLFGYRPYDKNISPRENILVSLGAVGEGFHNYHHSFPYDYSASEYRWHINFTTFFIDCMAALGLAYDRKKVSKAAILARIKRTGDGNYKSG

Key:
Test in all cases: log2 fold change, soluble protein after heating vs DMSO (PISA); higher = thermal stabilisation; K562 lysate, 10 uM; active = over 0.2 and 3.5 SD of the protein, either way, in both replicates (recomputed)
lapatinib = compound: CS(=O)(=O)CCNCc1ccc(-c2ccc3ncnc(Nc4ccc(OCc5cccc(F)c5)c(Cl)c4)c3c2)o1 [lapatinib]
Outline: (§1)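 Pellets of K562 cells were dounce-homogenised in PBS pH 7.4 with 1 mM MgCl2, and the crude extract was held at 1 mg/mL protein for a 30 min treatment with 10 μM compound. Aliquots were heated for 3 min over 48°C-58°C and pooled before NP-40 was added to 0.5% at 4°C. The supernatant from 21,000xg for 90 min was quantified by TMTpro 16plex LC-MS/MS with channel sums equalised. Values are reported from duplicates as log-two fold change in thermal stability relative to solvent controls.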

pictilisib = compound: CS(=O)(=O)N1CCN(Cc2cc3nc(-c4cccc5[nH]ncc45)nc(N4CCOCC4)c3s2)CC1 [pictilisib]
Outline: as §1

crizotinib = compound: C[C@@H](Oc1cc(-c2cnn(C3CCNCC3)c2)cnc1N)c1c(Cl)ccc(F)c1Cl [crizotinib]
Outline: as §1

[1] = compound: C[C@H](C1=CC=C(C=C1)C(=O)NC2=C3C=CNC3=NC=C2)N
Outline: as §1

duvelisib = compound: C[C@H](Nc1ncnc2nc[nH]c12)c1cc2cccc(Cl)c2c(=O)n1-c1ccccc1 [duvelisib]
Outline: as §1

gandotinib = compound: Cc1cc(Nc2cc(CN3CCOCC3)c3nc(C)c(Cc4ccc(Cl)cc4F)n3n2)n[nH]1 [gandotinib]
Outline: as §1

tozasertib = compound: Cc1cc(Nc2cc(N3CCN(C)CC3)nc(Sc3ccc(NC(=O)C4CC4)cc3)n2)n[nH]1 [tozasertib]
Outline: as §1

doramapimod = compound: Cc1ccc(-n2nc(C(C)(C)C)cc2NC(=O)Nc2ccc(OCCN3CCOCC3)c3ccccc23)cc1 [doramapimod]
Outline: as §1

bafetinib = compound: Cc1ccc(NC(=O)c2ccc(CN3CC[C@H](N(C)C)C3)c(C(F)(F)F)c2)cc1Nc1nccc(-c2cncnc2)n1 [bafetinib]
Outline: as §1

[2] = compound: Cc1cccc(CC(=O)N2CCc3c2ccc(-c2cn(C)c4ncnc(N)c24)c3F)n1
Outline: as §1

nilotinib = compound: Cc1cn(-c2cc(NC(=O)c3ccc(C)c(Nc4nccc(-c5cccnc5)n4)c3)cc(C(F)(F)F)c2)cn1 [nilotinib]
Outline: as §1

[3] = compound: Cc1nc(Nc2n[nH]c3c2CN(C(=O)N[C@H](CN(C)C)c2ccccc2)C3(C)C)c2sccc2n1
Outline: as §1

dasatinib = compound: Cc1nc(Nc2ncc(C(=O)Nc3c(C)cccc3Cl)s2)cc(N2CCN(CCO)CC2)n1 [dasatinib]
Outline: as §1

[4] = compound: Cc1ncc(-c2ccnc(Nc3ccc(S(C)(=O)=O)cc3)n2)n1C(C)C
Outline: as §1

[5] = compound: Cn1cc(-c2ccc3c(c2)CCN3C(=O)Cc2cccc(C(F)(F)F)c2)c2c(N)ncnc21
Outline: as §1

quisinostat = compound: Cn1cc(CNCC2CCN(c3ncc(C(=O)NO)cn3)CC2)c2ccccc21 [quisinostat]
Outline: as §1

tipifarnib = compound: Cn1cncc1[C@@](N)(c1ccc(Cl)cc1)c1ccc2c(c1)c(-c1cccc(Cl)c1)cc(=O)n2C [tipifarnib]
Outline: as §1

[6] = compound: NC(=O)Nc1cc(-c2cccc(F)c2)sc1C(=O)N[C@H]1CCCNC1
Outline: as §1

[7] = compound: NC(=O)c1cnc(N[C@@H]2CCCC[C@@H]2N)nc1Nc1cccc(-n2nccn2)c1
Outline: as §1

[8] = compound: NC1(c2ccc(-c3nc4ccn5c(=O)[nH]nc5c4cc3-c3ccccc3)cc2)CCC1
Outline: as §1

Row | Target | log2 fold change (lapatinib) | log2 fold change (pictilisib) | log2 fold change (crizotinib) | log2 fold change [1] | log2 fold change (duvelisib) | log2 fold change (gandotinib) | log2 fold change (tozasertib) | log2 fold change (doramapimod) | log2 fold change (bafetinib) | log2 fold change [2] | log2 fold change (nilotinib) | log2 fold change [3] | log2 fold change (dasatinib) | log2 fold change [4] | log2 fold change [5] | log2 fold change (quisinostat) | log2 fold change (tipifarnib) | log2 fold change [6] | log2 fold change [7] | log2 fold change [8]
1 | SDCCAG8 (UniProt Q86SQ7) | inactive: -0.03 | inactive: 0.004 | inactive: -0.03 | inactive: -0.049 | inactive: 0.041 | inactive: 0.011 | inactive: 0.036 | inactive: 0.029 | inactive: 0.01 | inactive: 0.036 | inactive: 0.098 | inactive: -0.075 | inactive: -0.03 | inactive: -0.016 | inactive: 0.045 | inactive: 0.003 | inactive: 0.131 | inactive: -0.02 | inactive: -0.096 | inactive: -0.002
2 | SEC23A (UniProt Q15436) | inactive: 0.008 | inactive: -0.015 | inactive: -0.001 | inactive: -0.033 | inactive: -0.031 | inactive: -0.081 | inactive: -0.023 | inactive: 0.006 | inactive: -0.016 | inactive: 0.017 | inactive: -0.025 | inactive: -0.042 | inactive: -0.016 | inactive: 0.086 | inactive: 0.036 | inactive: 0.005 | inactive: -0.062 | inactive: 0.002 | inactive: 0.002 | inactive: -0.017
3 | SCAF11 (UniProt Q99590) | inactive: 0.014 | inactive: -0.005 | inactive: 0.079 | inactive: -0.001 | inactive: 0.028 | inactive: 0.032 | inactive: 0.047 | inactive: 0.033 | inactive: -0.012 | inactive: 0.041 | inactive: -0.067 | inactive: 0.019 | inactive: 0.003 | inactive: -0.024 | inactive: -0.003 | inactive: -0.013 | inactive: -0.046 | inactive: -0.044 | inactive: 0.001 | inactive: 0
4 | SAR1A (UniProt Q9NR31) | inactive: 0.101 | inactive: 0.191 | inactive: -0.056 | inactive: 0.033 | inactive: 0.002 | inactive: 0.341 | inactive: 0.027 | active: 0.504 | inactive: -0.022 | inactive: 0.156 | inactive: 0.145 | inactive: 0.164 | inactive: 0.017 | inactive: -0.009 | inactive: 0.01 | inactive: 0.095 | inactive: -0.172 | inactive: -0.055 | inactive: -0.154 | inactive: -0.045
5 | SAAL1 (UniProt Q96ER3) | inactive: -0.002 | inactive: -0.007 | inactive: 0.007 | inactive: 0.027 | inactive: 0.036 | inactive: -0.093 | inactive: -0.006 | inactive: 0.021 | inactive: -0.013 | inactive: -0.022 | inactive: -0.015 | inactive: -0.01 | inactive: -0.013 | inactive: -0.013 | inactive: 0.062 | inactive: 0.041 | inactive: 0 | inactive: 0.009 | inactive: 0.005 | inactive: -0.01
6 | SEC24D isoform 2 (UniProt O94855) | inactive: 0.016 | inactive: -0.03 | inactive: 0 | inactive: 0.031 | inactive: 0.017 | inactive: -0.02 | inactive: 0.005 | inactive: 0 | inactive: -0.026 | inactive: -0.019 | inactive: -0.006 | inactive: -0.016 | inactive: -0.004 | inactive: -0.029 | inactive: 0.002 | inactive: 0.01 | inactive: 0.001 | inactive: -0.012 | inactive: -0.004 | inactive: 0.006
7 | SCYL2 (UniProt Q6P3W7) | inactive: 0.012 | inactive: -0.014 | inactive: 0 | inactive: -0.108 | inactive: -0.004 | inactive: 0.07 | inactive: 0.006 | inactive: 0.07 | inactive: -0.019 | inactive: 0.06 | inactive: 0.014 | inactive: 0.035 | inactive: -0.023 | inactive: 0.006 | inactive: 0.027 | inactive: -0.078 | inactive: -0.049 | inactive: 0.012 | inactive: -0.005 | inactive: -0.002
8 | SELENOS (UniProt Q9BQE4) | inactive: -0.033 | inactive: 0.012 | inactive: 0.01 | inactive: -0.002 | inactive: -0.024 | inactive: 0.02 | inactive: -0.013 | inactive: -0.054 | inactive: 0.032 | inactive: -0.059 | inactive: 0.044 | inactive: 0.069 | inactive: 0 | inactive: -0.046 | inactive: -0.03 | inactive: -0.034 | inactive: 0.089 | inactive: -0.032 | inactive: 0.016 | inactive: -0.025
9 | S100PBP (UniProt Q96BU1) | inactive: 0.024 | inactive: -0.057 | inactive: 0.008 | inactive: 0.027 | inactive: 0.034 | inactive: 0.013 | inactive: 0.248 | inactive: 0.08 | inactive: -0.016 | inactive: -0.046 | inactive: 0.076 | inactive: -0.024 | inactive: -0.009 | inactive: 0.006 | inactive: -0.007 | inactive: -0.058 | inactive: 0.051 | inactive: 0.081 | inactive: 0.052 | inactive: -0.009
10 | SAP30 (UniProt O75446) | inactive: -0.064 | inactive: -0.036 | inactive: 0.044 | inactive: 0.042 | inactive: 0.004 | inactive: -0.036 | inactive: -0.056 | inactive: 0.013 | inactive: -0.073 | inactive: 0.012 | inactive: 0.104 | active: -0.464 | inactive: -0.063 | inactive: -0.124 | inactive: 0.012 | inactive: -0.111 | inactive: -0.026 | inactive: 0.037 | inactive: -0.035 | 
11 | SBNO1 (UniProt A3KN83) | inactive: 0.007 | inactive: -0.008 | inactive: -0.025 | inactive: -0.012 | inactive: 0.01 | inactive: 0.021 | inactive: 0.004 | inactive: 0.041 | inactive: -0.016 | inactive: 0.036 | inactive: -0.009 | inactive: -0.009 | inactive: -0.01 | inactive: -0.006 | inactive: 0.014 | inactive: -0.025 | inactive: -0.007 | inactive: 0.004 | inactive: 0 | inactive: -0.006
12 | S100P (UniProt P25815) | inactive: 0.075 | inactive: 0.045 | inactive: 0.082 | inactive: 0.217 | inactive: -0.021 | inactive: -0.11 | inactive: 0.024 | inactive: -0.025 | inactive: -0.049 | inactive: -0.104 | inactive: 0.126 | inactive: 0.103 | inactive: 0.071 | inactive: 0.123 | inactive: -0.041 | inactive: 0.055 | inactive: 0.035 | inactive: -0.075 | inactive: -0.038 | inactive: 0.002
13 | SCRN3 (UniProt Q0VDG4) | inactive: 0.026 | inactive: 0.022 | inactive: -0.017 | inactive: 0.043 | inactive: -0.021 | inactive: -0.02 | inactive: -0.063 | inactive: -0.041 | inactive: -0.035 | inactive: -0.032 | inactive: -0.028 | inactive: -0.03 | inactive: 0.002 | inactive: 0.015 | inactive: -0.019 | inactive: 0.047 | inactive: -0.011 | inactive: 0.002 | inactive: -0.027 | inactive: -0.024
14 | SDF4 (UniProt Q9BRK5) | inactive: -0.005 | inactive: 0.003 | inactive: 0 | inactive: 0.084 | inactive: 0.009 | inactive: -0.021 | inactive: 0.001 | inactive: -0.034 | inactive: -0.027 | inactive: -0.05 | inactive: 0.008 | inactive: 0.018 | inactive: 0.004 | inactive: 0.043 | inactive: 0.027 | inactive: 0.032 | inactive: -0.023 | inactive: 0.008 | inactive: 0.011 | inactive: 0.01
15 | SEC13 isoform 3 (UniProt P55735) | inactive: 0 | inactive: 0.023 | inactive: 0.058 | active: 0.417 | inactive: 0.02 | inactive: -0.076 | inactive: 0.01 | inactive: -0.031 | inactive: -0.016 | inactive: -0.068 | inactive: -0.02 | inactive: 0.038 | inactive: -0.01 | inactive: 0.031 | inactive: 0.02 | inactive: 0.079 | inactive: -0.014 | inactive: 0.006 | inactive: 0.006 | inactive: -0.006
16 | SCD (UniProt O00767) | inactive: 0.059 | inactive: 0 | inactive: -0.08 | active: -0.443 | inactive: 0.067 | inactive: 0.155 | inactive: 0.065 | inactive: 0.077 | inactive: -0.053 | inactive: 0.273 | inactive: -0.007 | inactive: -0.017 | inactive: 0.01 | inactive: -0.01 | inactive: 0.007 | inactive: -0.144 | inactive: -0.077 | inactive: -0.023 | inactive: -0.183 | inactive: 0.03

Reprinted: nos. 1–2
Row | Target | log2 fold change (lapatinib) | log2 fold change (pictilisib) | log2 fold change (crizotinib) | log2 fold change [1] | log2 fold change (duvelisib) | log2 fold change (gandotinib) | log2 fold change (tozasertib) | log2 fold change (doramapimod) | log2 fold change (bafetinib) | log2 fold change [2] | log2 fold change (nilotinib) | log2 fold change [3] | log2 fold change (dasatinib) | log2 fold change [4] | log2 fold change [5] | log2 fold change (quisinostat) | log2 fold change (tipifarnib) | log2 fold change [6] | log2 fold change [7] | log2 fold change [8]
1 | SDCCAG8 (UniProt Q86SQ7) | inactive: -0.03 | inactive: 0.004 | inactive: -0.03 | inactive: -0.049 | inactive: 0.041 | inactive: 0.011 | inactive: 0.036 | inactive: 0.029 | inactive: 0.01 | inactive: 0.036 | inactive: 0.098 | inactive: -0.075 | inactive: -0.03 | inactive: -0.016 | inactive: 0.045 | inactive: 0.003 | inactive: 0.131 | inactive: -0.02 | inactive: -0.096 | inactive: -0.002
2 | SEC23A (UniProt Q15436) | inactive: 0.008 | inactive: -0.015 | inactive: -0.001 | inactive: -0.033 | inactive: -0.031 | inactive: -0.081 | inactive: -0.023 | inactive: 0.006 | inactive: -0.016 | inactive: 0.017 | inactive: -0.025 | inactive: -0.042 | inactive: -0.016 | inactive: 0.086 | inactive: 0.036 | inactive: 0.005 | inactive: -0.062 | inactive: 0.002 | inactive: 0.002 | inactive: -0.017
